Experimental data from article PMC9929473, “Ensembles of human myosin-19 bound to calmodulin and regulatory light chain RLC12B drive multimicron transport” (The Journal of Biological Chemistry, 2023).
Results are given in words; binding and its absence hold for the method and conditions named. Binding seen in cells or lysates may run through a third protein. Some results given as binding are weak or reduced against the parent protein; the word gives no strength. For part of these data: Where a sequence is shown, tags or fusion partners need not be part of it.

Amino acid sequences for entries named in this document (tags omitted).
UniProt O14950: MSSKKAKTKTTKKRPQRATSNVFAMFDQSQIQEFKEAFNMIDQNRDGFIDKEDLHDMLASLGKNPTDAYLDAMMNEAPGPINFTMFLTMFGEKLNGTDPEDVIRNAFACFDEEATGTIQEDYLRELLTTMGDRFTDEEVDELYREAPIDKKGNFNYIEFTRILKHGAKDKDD

Assays:
Assay in all cases: pull-down; co-purification: MBP-IQ-6xHis coexpressed with untagged RLC12B or CaM in E. coli Rosetta; nickel resin, 25 mM Tris-HCl pH 8, 300 mM NaCl, 1 mM EGTA, washes with 10 and 30 mM imidazole, elution with 250 mM imidazole; Coomassie SDS-PAGE
[1] = biological target: MBP-IQ3-6xHis fusion protein (Myo19 extended IQ3) (human)
[2] = biological target: T1, MBP-IQ1-6xHis fusion protein (Myo19 IQ1) (human)
T1 sequence: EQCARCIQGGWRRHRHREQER

[3] = biological target: T2, MBP-IQ2-6xHis fusion protein (Myo19 IQ2) (human)
T2 sequence: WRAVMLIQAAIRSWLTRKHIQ

- binding [1]: binds weakly
- binding [2]: no binding
- binding [3]: binds
Substance: RLC12B (untagged) coexpressed with MBP-IQ-6xHis in E. coli (from UniProt O14950 1-172)
